The other results are listed elsewhere or left out.
System: T1, CTL2-GFP (C. trachomatis L2/434/Bu, GFP-expressing)
T1 construct: L2/434/Bu, GFP-expressing
Design: species or system HeLa; Intracellular C. trachomatis growth in HeLa cells, bulk GFP fluorescence relative to DMSO
Conditions: bulk GFP, single well; 28.5 h, 10 µM; inhibitor

Structure (SMILES) | % of control remaining
O=C(O)CC1c2ccccc2Oc2ccccc21 [CBK261836] | 99.0626%
O=P(O)(CN1CCOCC1)CN1CCOCC1 [CBK260914] | 94.9736%
CCOC(=O)N1CCC(NS(=O)(=O)Cc2ccccc2[N+](=O)[O-])CC1 [CBK045467] | 61.2202%
COc1nccnc1N1CCN(CCc2ccccc2)CC1 [CBK084228] | 114.995%
CCn1c(SCC(=O)Nc2ccc(C#N)cc2)nnc1-c1ccncc1 [CBK270102] | 134.461%
COc1ccc(-c2cnc(NCCOc3ccccc3)c(C(=O)NCC3COc4ccccc4O3)c2)cc1 (stereo not drawn) [CBK076332] | 84.3486%
CCC(Sc1nc2ccc(F)cc2[nH]1)C(=O)O (stereo not drawn) [CBK287174] | 89.8915%
Cc1ccc(Nc2cc(-c3ccsc3)ncn2)cc1NS(C)(=O)=O [CBK091149] | 112.694%
COc1cc2c(cc1OC)CN(CC(O)COc1cccc3c1CCCC3)CC2 (stereo not drawn) [CBK003828] | 102.077%
CSc1ncccc1C(=O)NCc1ccc(NC(C)=O)cc1 [CBK305009] | 119.918%
Nc1nc2cccnc2cc1-c1cccc(C(F)(F)F)c1 [CBK081200] | 62.4237%
O=C(NC(Cc1ccccc1)N1C(=O)c2ccccc2C1=O)N1CCCc2ccccc21 (stereo not drawn) [CBK265551] | 91.6846%
O=C(Nc1ccccc1[N+](=O)[O-])C1(c2ccccc2)CCN(S(=O)(=O)c2ccccc2)CC1 [CBK267796] | 122.649%
Nc1ncnc2c1nc1n2[C@H]2C[C@@H](O)[C@H](O2)[C@H]1O [CBK201183] | 150.745%
O=C(OCc1ccccc1)N1CCC(n2ccn(C(=O)CCC3CCCC3)c2=O)CC1 [CBK106670] | 100%
Cc1cc(C(=O)N2CCCc3ccccc32)n[nH]1 [CBK200346] | 164.915%
CC(C)(C)c1ccc(-c2cnc3nc(O)ccc3c2)cc1 [CBK081284] | 145.043%
COC(=O)c1ccccc1S(=O)(=O)n1c(=O)n(CCc2c[nH]c3ccccc23)c2ccccc21 [CBK106509] | 146.036%
COCCNc1nccnc1-c1cccs1 [CBK036739] | 93.9299%
Cc1cc(Cc2cnc(NC(=O)C3CCS(=O)(=O)C3)s2)ccc1Br (stereo not drawn) [CBK298281] | 93.6946%
CN(CC(=O)Nc1sc2c(c1C#N)CCCC2)Cc1cnn(C)c1 [CBK304618] | 129.246%
CCN(CC)C(=O)CN1CCCN(c2cc(OCc3cc(C)on3)ncn2)CC1 [CBK083337T] | 107.175%
O=C(CO)N1CC2(CCN(Cc3ccc(Cl)c(Cl)c3)CC2)c2ccccc21 [CBK131495] | 83.7584%
Cc1ccc(S(=O)(=O)NCC23C=CC(O2)C2C(=O)N(Cc4ccccc4)C(=O)C23)cc1 (stereo not drawn) [CBK261170] | 85.4229%
Cc1nc(-c2cccnc2)sc1C(=O)NC(C)C1CC2CCC1C2 (stereo not drawn) [CBK281637] | 136.16%
CCc1ccc(NC(=O)CN2CCN(c3ccccc3F)CC2)cc1 [CBK307549] | 103.41%

Structure (SMILES) | % of control remaining
O=C(O)C(Cc1ccccc1)Nc1ncnc2sc3c(c12)CCC3 (stereo not drawn) [CBK265266] | 110.225%
COC(=O)c1ccc(NC(=O)N2CCCCC2CCn2ccnc2)cc1 (stereo not drawn) [CBK307195] | 138.694%
CCCN1C(C)=NS(=O)(=O)c2cc(C(=O)O)ccc21 [CBK287251] | 112.666%
CCOC(=O)C1CCCN(CCC(=O)Nc2ccccc2)C1 (stereo not drawn) [CBK264192C] | 115.061%
O=C(O)c1cc(NC(=O)c2cccc(N3C(=O)c4ccc([N+](=O)[O-])cc4C3=O)c2)cc(C(=O)O)c1 [CBK261394] | 101.945%
COc1ccc(-c2nc3cc(NC(=O)COc4ccccc4[N+](=O)[O-])ccc3o2)cc1Cl [CBK263412] | 120.2%
COc1ccc(CN(C(=O)CCN2C(=O)c3ccccc3S2(=O)=O)c2ccccc2O)cc1 [CBK265973] | 100%
COc1cc([N+](=O)[O-])ccc1NC(=O)NCc1ccco1 [CBK266855] | 134.326%
NS(=O)(=O)c1ccccc1NC(=O)NC1CCCCC1 [CBK016919] | 157.107%
O=C(CSc1nnc(-c2ccccc2O)n1Cc1ccccc1)NC12CC3CC(CC(C3)C1)C2 [CBK266075] | 100.809%
CCOC(=O)CNS(=O)(=O)c1cccc2cccnc12 [CBK034440] | 97.943%
O=C(NC(=S)Nc1ccccc1C(=O)O)c1ccc(Cl)cc1 [CBK265044] | 88.4666%
O=C(O)C1CCCCC1C(=O)N1CCN(C(c2ccccc2)c2ccccc2)CC1 (stereo not drawn) [CBK265480] | 113.381%
O=C(OCCC1SC(NC2CC3C=CC2C3)=NC1=O)c1cc(F)ccc1F (stereo not drawn) [CBK200059T] | 134.071%
CN1CCCC1CCNC(=O)c1ccc(-c2ccoc2)nc1 (stereo not drawn) [CBK156255] | 100%
COc1ccc(Cn2nc3nnc(-c4ccc(F)cc4)c(-c4ccc(F)cc4)n3c2=O)cc1 [CBK286183] | 83.1369%
COc1cc2c(cc1OC)CN(CC(N)=O)CC2 [CBK126391] | 102.312%
CCN1CC(C(=O)N2CCCC(COc3ccc(F)cc3)C2)CC1=O (stereo not drawn) [CBK282028] | 145.313%
CCN(CC)C(=O)CN(CCc1ccc(OC)c(OC)c1)C(=O)NCCN1CCOCC1 [CBK158734] | 111.731%
CCOC(=O)C1(Cc2cc(-c3ccc(F)cc3)no2)CCNCC1 [CBK284581] | 116.751%
CCN(Cc1ccncc1)C(=O)NCc1cccnc1 [CBK145054] | 110.57%
O=C(NCCC1=CCCCC1)Nc1ccc(F)c(F)c1F [CBK043265] | 147.45%
Cc1occc1C(=O)Nc1nc(CC(=O)N2CC(C)SC(C)C2)cs1 (stereo not drawn) [CBK306271] | 133.061%
CC(=O)Cn1nnnc1C [CBK020588] | 131.165%
COc1ccc(Nc2cccc(-c3cnc(OC)nc3OC)n2)cc1 [CBK036825] | 183.484%

Reformatted tab-delimited: 4 of the compounds above.
Structure (SMILES)	% of control remaining
COC(=O)c1ccc(NC(=O)N2CCCCC2CCn2ccnc2)cc1 (stereo not drawn) [CBK307195]	138.694%
COc1ccc(-c2nc3cc(NC(=O)COc4ccccc4[N+](=O)[O-])ccc3o2)cc1Cl [CBK263412]	120.2%
CCN1CC(C(=O)N2CCCC(COc3ccc(F)cc3)C2)CC1=O (stereo not drawn) [CBK282028]	145.313%
O=C(NCCC1=CCCCC1)Nc1ccc(F)c(F)c1F [CBK043265]	147.45%
